In PubChem BioAssay AID184 (DTP/NCI, 2004) one finds T/C data, which are given here for one compound.

Molecules are shown by their SMILES. The list does not hold the whole screen: it covers a few groups of compounds. Other doses and runs of a compound may be missing. T/C: endpoint of the treated group in % of that of the vehicle group. Where survival is the endpoint, the PubChem record calls one and a half times the control and up active, and a quarter to a half above the control has no call in these data; cut-offs in other NCI protocols can differ. Schedules are NCI's codes, taken here to give the interval after Q, in days (D) or hours (H), and the number of doses after X. Some entries hold several experiments; the values are given in rising order.

The experiment relates to BALB/cJ mice, ADJ-PC-6 ip tumor, median survival T/C. The experiment can be described thus: NCI In Vivo Anticancer Drug Screen. Data for tumor model ADJ-PC-6 (intraperitoneal) in BALB/cJ mice. To be noted: T/C endpoint: median survival time, schedule: Q04DX003 (ip), vehicle: saline, higher T/C = longer survival. As for the experimental part:
The antitumor activity of compounds was measured in mice bearing transplantable tumors. Survival or tumor size were measured and the results are expressed as the measurement made in the treated group (T) divided by the measurement made in the vehicle treated control group (C). The tumor model used in this assay is ADJ-PC-6 (intraperitoneal) in BALB/cJ mice

Take `CN(CCCl)CCCl`: the T/C was 138 and 171 % of control (dose: 0.15 mg/kg/injection); 176 and 177 % of control (dose: 0.3 mg/kg/injection); 168 and 189 % of control (dose: 0.6 mg/kg/injection); 190 and 230 % of control (dose: 1.2 mg/kg/injection); 277 % of control (dose: 2.4 mg/kg/injection).
